Source: PubChem BioAssay AID1347075 (National Center for Advancing Translational Sciences (NCATS), 2019)
The whole screen tested about 400,000 compounds, of which about 5,500 (1.4%) were called active. Inconclusive results, whose numbers are uncertain, are shown with a selection of clear calls. Calls follow the shape of the dose curve; as a rule, active = well fitted cell-killing curve with a large enough effect; inconclusive = small, poorly fitted or top-dose-only effect, or effect the other way; inactive = flat fitted curve, though single readings scatter. Potencies of inconclusive entries are doubtful fits and often do not repeat.

assay: qHTS assay for MDR1-selective chemotherapeutics: Primary screen using the parental adenocarcinoma cell KB-3-1; conditions: KB-3-1 viability, CellTiter-Glo ATP luminescence, 72 h; activity change, negative = cytotoxic: at 46.1 µM (top of the series); also: nearly all actives have a fitted effect of over 60% in size
In short: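 Cells are dispensed, compounds pinned in, plates held at 37 °C for 72 h, then CellTiter-Glo is added and luminescence read after 10 minutes. Cell line: parental KB-3-1 in phenol-red-free DMEM, 10% FBS.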
% is scaled to controls: 0 for no effect and ±100 for the full control effect; potency is read from the fitted curve at half-maximal effect.

SMILES | Potency | activity change, negative = cytotoxic
CN(C)c1ccc(C=Nc2cncc3ccccc23)cc1 | inconclusive: 20.6 µM [rising, single point] | –
CC1CCCCC1NC(=O)COC(=O)c1ccc2c(c1)NC(=O)CS2 (centres undefined) | – | inconclusive: 32.1%
COC(=O)/C(=C\Nc1ccc(Oc2ccc(F)cc2F)nc1)NC(=O)c1ccccc1 | inconclusive: 14.6 µM [rising, partial curve] | –
O=C(Nc1nc(-c2ccccn2)cs1)c1ccc(F)c(S(=O)(=O)N2CCOCC2)c1 | inconclusive: 2.59 µM [cytotoxic, full curve, poor fit] | –
CC(C)CC(=O)Nc1nnc(SCC(=O)NCc2ccco2)s1 | inconclusive: 20.6 µM [rising, partial curve, poor fit] | –
CN(C(=O)Cn1c(=O)n(Cc2ccc(C(=O)NCc3ccc4c(c3)OCO4)cc2)c(=O)c2ccccc21)c1ccccc1 | inactive | –
CCOc1ccc(NC(=O)N(CCCN2CCOCC2)Cc2cccnc2)cc1 | inconclusive: 0.0366 µM [cytotoxic, full curve] | –
CCCCCCCn1c(=N)n(CC(=O)c2ccco2)c2ccccc21 | inconclusive: 23.1 µM [cytotoxic, single point] | –
COC(=O)c1ccc(CSc2nc3sc(C)c(C)c3c(=O)[nH]2)cc1 | inactive | –
Cc1ccccc1Cc1c(C)nc2c(-c3ccccc3)c(C)[nH]n2c1=O | inconclusive: 32.6 µM [cytotoxic, single point] | –
CCN(CC)CCNc1nc(-n2nc(C)cc2C)nc2sc3c(c12)CC(C)(C)OC3 | inconclusive: 23.1 µM [cytotoxic, partial curve, poor fit] | –
COc1ccc(CCC(=O)Nc2ncc(C)s2)cc1OC | inconclusive: 6.51 µM [rising, full curve] | –
O=C(Nc1ccc(Cl)cc1)N[C@@H]1CC[C@H](CCNS(=O)(=O)c2ccccc2F)O[C@@H]1CO | inactive | –
c1ccc(-c2noc(-c3ccncc3)n2)nc1 | inconclusive: 11.6 µM [cytotoxic, partial curve, poor fit] | –
CC(Oc1cc(Cl)ccc1Cl)C(=O)N/N=C\c1ccnn1C (centres undefined) | inactive | –
c1ccc(SCCN2CCN(c3ccccc3)CC2)cc1 | inactive | –
COCCN1CC(C(=O)NCc2ncccc2C)CCC1=O (centres undefined) | inactive | –
CCN(CC)c1ccc(S(=O)(=O)N2CCOCC2)cc1NC(=O)Cn1nc(C)c([N+](=O)[O-])c1C | inactive | –
COc1ccc(NC(=O)c2ccc(CN3CCc4ccccc4C3)cc2)cc1OC | inconclusive: 20.6 µM [cytotoxic, single point] | –
CCOC(=O)N1CCN(C(=O)c2ccc3nc(SCc4ccc(F)cc4)n(C)c3c2)CC1 | inactive | –
CS(=O)(=O)N(Cc1cccc(CN(C(C(=O)O)c2ccccc2)S(C)(=O)=O)c1)C(C(=O)O)c1ccccc1 (centres undefined) | inconclusive: 18.4 µM [rising, partial curve, poor fit] | –
CCCCN(C)C(=O)c1nc2ccccn2c1CNC1CCC1 | inconclusive: 25.9 µM [rising, single point] | –
COC(=O)c1c(NC(=O)c2ccco2)sc2c1CCN(C(C)=O)C2 | inconclusive: 13 µM [rising, partial curve] | –

An excerpt from above in order of number of heavy atoms, ascending.
SMILES | Potency | activity change, negative = cytotoxic
c1ccc(-c2noc(-c3ccncc3)n2)nc1 | inconclusive: 11.6 µM [cytotoxic, partial curve, poor fit] | –
c1ccc(SCCN2CCN(c3ccccc3)CC2)cc1 | inactive | –
COCCN1CC(C(=O)NCc2ncccc2C)CCC1=O (centres undefined) | inactive | –
CC(C)CC(=O)Nc1nnc(SCC(=O)NCc2ccco2)s1 | inconclusive: 20.6 µM [rising, partial curve, poor fit] | –
COC(=O)c1ccc(CSc2nc3sc(C)c(C)c3c(=O)[nH]2)cc1 | inactive | –
CC1CCCCC1NC(=O)COC(=O)c1ccc2c(c1)NC(=O)CS2 (centres undefined) | – | inconclusive: 32.1%
Cc1ccccc1Cc1c(C)nc2c(-c3ccccc3)c(C)[nH]n2c1=O | inconclusive: 32.6 µM [cytotoxic, single point] | –
CCOc1ccc(NC(=O)N(CCCN2CCOCC2)Cc2cccnc2)cc1 | inconclusive: 0.0366 µM [cytotoxic, full curve] | –
COc1ccc(NC(=O)c2ccc(CN3CCc4ccccc4C3)cc2)cc1OC | inconclusive: 20.6 µM [cytotoxic, single point] | –
COC(=O)/C(=C\Nc1ccc(Oc2ccc(F)cc2F)nc1)NC(=O)c1ccccc1 | inconclusive: 14.6 µM [rising, partial curve] | –
O=C(Nc1ccc(Cl)cc1)N[C@@H]1CC[C@H](CCNS(=O)(=O)c2ccccc2F)O[C@@H]1CO | inactive | –
CCN(CC)c1ccc(S(=O)(=O)N2CCOCC2)cc1NC(=O)Cn1nc(C)c([N+](=O)[O-])c1C | inactive | –
CS(=O)(=O)N(Cc1cccc(CN(C(C(=O)O)c2ccccc2)S(C)(=O)=O)c1)C(C(=O)O)c1ccccc1 (centres undefined) | inconclusive: 18.4 µM [rising, partial curve, poor fit] | –
CN(C(=O)Cn1c(=O)n(Cc2ccc(C(=O)NCc3ccc4c(c3)OCO4)cc2)c(=O)c2ccccc21)c1ccccc1 | inactive | –

In a second layout: entries from further up.

| SMILES | Potency | activity change, negative = cytotoxic |
| --- | --- | --- |
| CCN(CC)c1ccc(S(=O)(=O)N2CCOCC2)cc1NC(=O)Cn1nc(C)c([N+](=O)[O-])c1C | inactive | – |
| COc1ccc(NC(=O)c2ccc(CN3CCc4ccccc4C3)cc2)cc1OC | inconclusive: 20.6 µM [cytotoxic, single point] | – |

(list continues)

SMILES | Potency | activity change, negative = cytotoxic
COc1ccc(S(=O)(=O)n2cnc3ccccc32)c(C)c1 | inconclusive: 23.1 µM [cytotoxic, partial curve, poor fit] | –
CCn1cc(Cl)c(C(=O)N2N=C3/C(=C/c4cccs4)CCCC3C2c2cccs2)n1 (centres undefined) | inconclusive: 18.4 µM [cytotoxic, single point] | –
CCOC(=O)C1=C(N)n2c(s/c(=C\c3ccco3)c2=O)=C(C(=O)OCC)C1c1ccco1 (centres undefined) | active: 16.4 µM | –
CC1=C(C(=O)OCc2ccccc2)C(c2ccc([N+](=O)[O-])cc2)NC(=O)N1C (centres undefined) | – | inconclusive: -32.3% [cytotoxic]
CCC(C)N1CCC2(CC1)N=c1c(c3c4c5c(C)c(O)c3c(O)c1=NC(=O)C(C)=CC=C[C@H](C)[C@H](O)[C@@H](C)[C@@H](O)[C@@H](C)[C@H](OC(C)=O)[C@H](C)[C@@H](OC)C=CO[C@@](C)(O5)C4=O)N2 (some centres undefined) | inactive | –
O=C(NCc1cccc(C(F)(F)F)c1)C1CC(c2ccccc2C(F)(F)F)=NO1 (centres undefined) | inconclusive: 25.9 µM [cytotoxic, single point] | –
CCOC(=O)C1(C)C=C(Nc2ccc(O)cc2)C(=O)N1c1ccc(O)cc1 (centres undefined) | inconclusive: 13 µM [rising, partial curve, poor fit] | –
COc1ccccc1N(CC(O)CN(c1ccccc1)S(C)(=O)=O)S(=O)(=O)c1ccccc1 (centres undefined) | inactive | –
CC(=O)c1cccc(OCc2cc(C(=O)NC3CCN(Cc4ccccc4)CC3)no2)c1 | inconclusive: 20.6 µM [cytotoxic, partial curve, poor fit] | –
CN1C2C=C(N(CCc3c[nH]c4ccccc34)C(=O)c3ccc(Cl)cc3)CC1CC2 (centres undefined) | inconclusive: 29.1 µM [cytotoxic, single point] | –
Cc1sc(NC(=O)c2ccco2)c(CN2CCN(c3ccccn3)CC2)c1C | active: 20.6 µM | –
N#Cc1ccc(N2CCc3ccccc3C2)c([N+](=O)[O-])c1 | inconclusive: 11.6 µM [cytotoxic, partial curve, poor fit] | –
Cc1cc2oc(C(=O)N(Cc3ccc(N(C)C)cc3)CC3CCCO3)c(C)c2cc1C (centres undefined) | inactive | –
COc1ccc(-c2cnnn2-c2ccc(NC(=O)c3ccc(S(=O)(=O)N4CCCCC4)cc3)cc2)cc1OC | inactive | –
CCC1=Nc2cc(C(=O)NCCCOC(C)C)ccc2Sc2ccc(C)cc21 | inconclusive: 7.31 µM [cytotoxic, partial curve, poor fit] | –
COC(=O)c1ccccc1NC(=O)Cn1ncc2c(C)n(Cc3ccc(F)cc3)c(C)c2c1=O | inactive | –
COc1cc2cnc(-c3ccccc3)c(-c3ccc(C(F)(F)F)cc3)c2cc1OC | inconclusive: 18.4 µM [cytotoxic, single point] | –
COc1ccc(-c2coc3c(C(=O)NCc4cccs4)cccc23)c(C)c1 | inconclusive: 23.1 µM [cytotoxic, single point] | –
CC(=O)c1cccc(Nc2cc(C)nc3nc(-c4ccccc4C)nn23)c1 | inactive | –
Cc1sc2ncn(CC(=O)NCc3ccco3)c(=O)c2c1-c1ccccc1 | inactive | –
CC(c1ccccc1)C(OC(=O)c1cccc([N+](=O)[O-])c1C(=O)O)c1ccccc1 (centres undefined) | inconclusive: 29.1 µM [rising, single point] | –
CN(C)CCCN(C(=O)c1ccc(S(=O)(=O)N2CCc3ccccc32)cc1)c1nc2c(Cl)cccc2s1 | inconclusive: 29.1 µM [cytotoxic, single point] | –
CCC(=O)N1CCc2cc(S(=O)(=O)NCCC(=O)Nc3cccc(SC)c3)ccc21 | inactive | –

SMILES | Potency | activity change, negative = cytotoxic
CCOC(=O)NC1(Nc2cccc(Cl)c2)Oc2ccccc2O1 | inconclusive: 29.1 µM [cytotoxic, single point] | –
COC(=O)CCC(=O)N(CCN(Cc1ccccc1)C(=O)CCC(=O)OC)Cc1ccccc1 | inconclusive: 29.1 µM [cytotoxic, partial curve, poor fit] | –
O=C(NCc1nnc(SCC(=O)N2CCCc3ccccc32)n1-c1ccccc1)c1cccc2ccccc12 | inconclusive: 18.4 µM [cytotoxic, single point] | –
COc1ccc(OCC(O)CN(C)C(=O)C(C)Oc2ccccc2)cc1 (centres undefined) | inconclusive: 16.4 µM [cytotoxic, single point] | –
CSc1ccccc1C(=O)NCCc1ccc(S(=O)(=O)N2CCCCC2)cc1 | inconclusive: 20.6 µM [cytotoxic, single point] | –
CNC(=S)N1N=C(c2cccs2)CC1c1ccc(F)cc1 (centres undefined) | inconclusive: 29.1 µM [cytotoxic, single point] | –
Nn1c(C2CCC2)nc2cc(Cl)ccc2c1=O | inactive | –
COC(=O)c1ccc(NC(=O)C(=O)N2CCN(C(=S)Nc3ccccc3OC)CC2)cc1 | – | inconclusive: 44.1%
CC(C)c1nc(SCC(=O)Nc2nc3c(s2)CCCC3)c2ccccc2n1 | inactive | –
CCOc1cc(C(=O)N/N=C/C(Br)=C/c2ccccc2)cc(OCC)c1OCC | inconclusive: 2.91 µM [cytotoxic, full curve] | –
CC1CC1C(=O)Nc1nc(-c2cccs2)c(-c2cccs2)s1 (centres undefined) | inactive | –
CCC1Oc2ccc(C)cc2N(CC(=O)N(Cc2cccnc2)Cc2ccc(C)o2)C1=O (centres undefined) | inactive | –
COc1ccccc1NC(=O)C1=C(C)Nc2nc(SCc3ccccc3Cl)nn2C1c1cccnc1 (centres undefined) | inactive | –
CN1CCN(C(=S)Nc2cccc(Cl)c2)CC1 | inactive | –
O=C(C=Cc1cccnc1)c1ccccc1 | inconclusive: 20.6 µM [cytotoxic, single point] | –
CN(C(=O)c1ccc(NC(=O)Cc2cccc(NC(=O)C3CCCN(C(=O)C4CC4)C3)c2)cc1)C1CCCC1 (centres undefined) | inactive | –
COc1ccccc1/C=N/Nc1cc(C)nc2ccc(C)cc12 | inactive | –
COc1ccc(-c2nnc3sc(C4CCCCC4)nn23)cc1OC | inactive | –
O=C(CCNC(=O)c1ccc(Br)cc1)Nc1ccccc1N1CCCCC1 | inactive | –
CC(=O)c1cccc(N(CC(=O)NC2CCCCC2)C(=O)CCC(=O)Nc2nc(C)cs2)c1 | – | inconclusive: 13.1%
CCN(CC)S(=O)(=O)c1cccc(C(=O)OCC(=O)C23CC4CC(CC(C4)C2)C3)c1 | inconclusive: 23.1 µM [cytotoxic, partial curve, poor fit] | –
O=C(c1cccs1)N1CCN(c2nc3ccc([N+](=O)[O-])cc3s2)CC1 | inactive | –
COC(=O)c1ccc(CSc2nc3c(c(=O)n2-c2ccccc2)SCC3)o1 | inconclusive: 29.1 µM [cytotoxic, single point] | –
